This note sets out measurements from patent US20110129473A1 (LABORATORIOS SILANES S A DE C V, published 2011).

Amino acid sequences for entries named in this document (tags omitted). Residues count along the entry.
UniProt P01375, residues 77-233: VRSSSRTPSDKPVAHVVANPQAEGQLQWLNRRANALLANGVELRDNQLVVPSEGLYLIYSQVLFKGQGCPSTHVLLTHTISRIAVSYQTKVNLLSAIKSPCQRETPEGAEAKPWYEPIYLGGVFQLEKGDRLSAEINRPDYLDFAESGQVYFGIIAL

These are yes or no findings as the source states them, for the method shown. Some results given as binding are weak or reduced against the parent protein; the word gives no strength.

For this assay, the target named is T1, recombinant human cytokine TNFα (human, UniProt P01375 77-233).
T1 construct: Recombinant human TNFα used for immunisation, panning and ELISA; also called human TNFα; rhTNF-α
Put plainly: phage display selection and ELISA on coated TNFα. On the procedure:
Phage selection rounds, amplification and recovery: There were performed 4 rounds of phage selection with TNFα 1 μg in PBS in an ELISA plate, sealed and incubating over night at 4° C., the cytokine is eliminated and blocking with 150 μl of PBS-BSA (3%), sealed and incubated 1 hr at 37° C.; discarding and adding 50 μl of phage-antibodies for each well, sealed and incubated with TBS-Tween 20 (0.05%) 150 for each well using the pipette to agitate. The solution is discarded and the phage-antibodies specific for TNFα are harvested after adding 50 μl per well of TBS-Trypsin [10 mg/ml]. The plate is sealed and incubated during 30 minutes, 37° C. The phage-antibodies are recovered and used to infect a culture of E. coli ER2537 (2 ml) electro-compentents (DO₆₀₀=1), during 15 minutes at room temperature. The selected phage-antibodies are amplified using serial dilutions incubating the transformants in SB media with carbencillin and helper phage VCSM13 with kanamycin. The phage-antibodies were recovered from the infected cultures of ER2537 cells by centrifugations using first PEG-8000 4% and NaCl 3, and PBS_BSA 1% (2 ml) filtering the supernatant with a 0.22 μm membrane, using 50 μl para to be selected according to the TNFα binding. […]
(In an ELISA, binding on a coated surface is turned into a signal by an enzyme label.)

B1: vNAR clone 43 (anti-TNFα vNAR from Heterodontus francisci) (protein)
chain: ASLDQTLRTATRETGESLTVNCVLYDANYGLYSTSWYRNNPGSTDREHITIGGRYVESVNKGAKSFSLQIKDMTVEDSGTYYCKARATSGYTPHDGSGTVLTVN
For B1, the binding result was “binds”.
